Experimental data: PubChem BioAssay AID1259308 (NCATS, 2017)
The deposit covers about 59,000 reagents; shown is a part drawn at random. Of all reagents, about 1,510 (2.6%) got an active call. 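Calls use total luciferase alone and ignore viability, so some active siRNAs may act by altering cell number.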 Reagents against one gene are numbered here. Reagent sequences are not shown.

- Purpose: 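Candidate targets for better recombinant protein yield in mammalian cells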 (primary screen)
- Cell system: human HEK293 embryonic kidney cells stably expressing firefly luciferase (HEK-CMV-Luc2-Hygro)
- Knock-down reagent: single siRNA against human genes, 0.8 pmol siRNA per well
- Time to read-out: 72 h
- Measured: 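Luciferase light (ONE-Glo) measured on one replicate plate set and viability (CellTiter-Glo) on the other, scaled to a negative control siRNA, with robust z-scores and luciferase per cell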
- Direction: total luciferase, z-score and total luciferase, % of control: higher = more reporter protein produced; luciferase per cell, z-score: higher = more reporter output per viable cell; viable cells, % of control: higher = more viable cells
- Call rule: 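Active when the median/MAD z-score for overall luciferase is greater than 3; a gene was taken forward for validation with new siRNAs if at least two of its three siRNAs passed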
- Calls: active = raised luciferase; inactive = no rise

target gene,siRNA no.,"total luciferase, z-score","total luciferase, % of control","luciferase per cell, z-score","viable cells, % of control",Outcome
TMEM62,1,2.21,126,1.6,92.3,inactive
TMEM62,2,-0.229,77.3,0.137,83.4,inactive
TMEM62,3,0.287,87.6,0.456,86.8,inactive
MRI1,1,-0.52,71.5,-0.438,89.7,inactive
MRI1,2,-0.118,79.5,-0.499,101,inactive
MRI1,3,-0.0538,80.8,-0.344,98.9,inactive
WDR27,1,-0.619,69.6,0.435,69.3,inactive
WDR27,2,-1.85,45.1,-1.47,74.2,inactive
WDR27,3,-0.41,73.7,-0.117,85,inactive
PRKAB2,1,0.125,84.4,0.0644,92.7,inactive
PRKAB2,2,0.823,98.3,0.752,90.1,inactive
PRKAB2,3,1.48,111,1.52,83.4,inactive
BCL7B,1,-0.143,79,-0.547,102,inactive
BCL7B,2,-2.37,34.7,-2.9,83.2,inactive
BCL7B,3,-0.181,78.3,-0.291,94.4,inactive
CORO2A,1,-0.381,74.3,-0.359,91.3,inactive
CORO2A,2,0.258,87,0.151,93.5,inactive
CORO2A,3,-1.5,52.2,-1.91,96.4,inactive
ATG14,1,1.95,121,1.73,85.5,inactive
ATG14,2,-0.8,66,-0.747,89.7,inactive
ATG14,3,-0.605,69.9,-0.892,98.7,inactive
MAB21L3,1,-1.09,60.2,-0.608,78.9,inactive
MAB21L3,2,0.519,92.2,0.239,96.8,inactive
MAB21L3,3,0.217,86.2,-0.399,107,inactive
CDSN,1,-2.3,36.1,-2.85,85.3,inactive
CDSN,2,0.758,97,0.42,97,inactive
CDSN,3,3.94,160,3.24,76.3,active
P3H4,1,1.43,110,1.01,94.4,inactive
P3H4,2,-1.21,57.8,-0.21,68.3,inactive
P3H4,3,-2.52,31.7,-1.52,53,inactive
MEIOC,1,-1.49,52.2,-0.139,60.5,inactive
MEIOC,2,-0.839,65.2,-1.32,103,inactive
MEIOC,3,0.0872,83.6,-0.11,96.2,inactive
TMEM119,1,0.0286,82.5,0.705,76.5,inactive
TMEM119,2,-1.97,42.7,-1.01,62.4,inactive
TMEM119,3,0.605,93.9,-0.0439,106,inactive
PDE4DIPP3,1,0.318,88.2,-0.158,103,inactive
PDE4DIPP3,2,4.51,172,3.6,74.2,active
PDE4DIPP3,3,0.317,88.2,1.68,63.3,inactive
ZNF550,1,0.794,97.7,0.457,96.8,inactive
ZNF550,2,1.45,111,1.95,74,inactive
ZNF550,3,1.41,110,0.706,102,inactive
ZNF761,1,0.209,86,-0.276,103,inactive
ZNF761,2,0.986,101,0.906,89.3,inactive
ZNF761,3,2.44,130,2.14,83,inactive
GCNT3,1,0.846,98.7,0.857,88,inactive
GCNT3,2,0.23,86.5,-0.447,109,inactive
GCNT3,3,0.596,93.7,0.254,98,inactive
INPP5B,1,0.566,93.1,1.09,78.2,inactive
INPP5B,2,-0.0685,80.5,-0.482,102,inactive
INPP5B,3,1.28,107,0.272,112,inactive
RPL23AP82,1,-1.98,42.5,-0.582,55.4,inactive
RPL23AP82,2,-0.897,64,0.339,65.5,inactive
RPL23AP82,3,2.01,122,1.64,88.4,inactive
RIT1,1,-1.14,59.2,-1.53,98.8,inactive
RIT1,2,-1.79,46.2,-1.67,80.1,inactive
RIT1,3,1.91,120,2.87,62.9,inactive
